From paper PMC9723622

Amino acid sequences for entries named in this document (tags omitted).
UniProt P09874: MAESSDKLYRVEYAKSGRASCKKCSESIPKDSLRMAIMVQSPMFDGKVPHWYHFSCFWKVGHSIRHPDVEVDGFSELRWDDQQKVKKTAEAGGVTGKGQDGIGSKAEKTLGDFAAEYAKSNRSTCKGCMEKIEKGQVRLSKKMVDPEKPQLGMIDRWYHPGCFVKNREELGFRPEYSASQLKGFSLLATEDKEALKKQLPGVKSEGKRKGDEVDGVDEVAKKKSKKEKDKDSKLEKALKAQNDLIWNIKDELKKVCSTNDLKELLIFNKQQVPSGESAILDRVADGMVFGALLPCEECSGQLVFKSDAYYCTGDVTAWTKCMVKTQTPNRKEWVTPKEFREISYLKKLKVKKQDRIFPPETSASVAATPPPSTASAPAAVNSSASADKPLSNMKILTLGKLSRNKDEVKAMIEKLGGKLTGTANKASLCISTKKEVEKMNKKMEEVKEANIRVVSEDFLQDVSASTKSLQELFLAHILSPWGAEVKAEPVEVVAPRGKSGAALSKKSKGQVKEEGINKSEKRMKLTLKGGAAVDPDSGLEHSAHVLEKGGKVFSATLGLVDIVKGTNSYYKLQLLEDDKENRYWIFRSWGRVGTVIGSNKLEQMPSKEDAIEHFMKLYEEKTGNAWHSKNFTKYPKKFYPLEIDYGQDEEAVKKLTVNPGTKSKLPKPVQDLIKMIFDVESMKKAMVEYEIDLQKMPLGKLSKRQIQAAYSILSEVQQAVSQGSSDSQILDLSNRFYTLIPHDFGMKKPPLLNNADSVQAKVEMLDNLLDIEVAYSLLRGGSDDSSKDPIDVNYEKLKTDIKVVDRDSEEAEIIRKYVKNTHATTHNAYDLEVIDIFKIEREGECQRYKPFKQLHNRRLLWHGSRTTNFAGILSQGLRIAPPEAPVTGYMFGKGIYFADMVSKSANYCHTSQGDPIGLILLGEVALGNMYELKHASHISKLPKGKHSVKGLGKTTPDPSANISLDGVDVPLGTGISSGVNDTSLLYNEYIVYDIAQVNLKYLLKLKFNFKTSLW
UniProt Q9ULW0: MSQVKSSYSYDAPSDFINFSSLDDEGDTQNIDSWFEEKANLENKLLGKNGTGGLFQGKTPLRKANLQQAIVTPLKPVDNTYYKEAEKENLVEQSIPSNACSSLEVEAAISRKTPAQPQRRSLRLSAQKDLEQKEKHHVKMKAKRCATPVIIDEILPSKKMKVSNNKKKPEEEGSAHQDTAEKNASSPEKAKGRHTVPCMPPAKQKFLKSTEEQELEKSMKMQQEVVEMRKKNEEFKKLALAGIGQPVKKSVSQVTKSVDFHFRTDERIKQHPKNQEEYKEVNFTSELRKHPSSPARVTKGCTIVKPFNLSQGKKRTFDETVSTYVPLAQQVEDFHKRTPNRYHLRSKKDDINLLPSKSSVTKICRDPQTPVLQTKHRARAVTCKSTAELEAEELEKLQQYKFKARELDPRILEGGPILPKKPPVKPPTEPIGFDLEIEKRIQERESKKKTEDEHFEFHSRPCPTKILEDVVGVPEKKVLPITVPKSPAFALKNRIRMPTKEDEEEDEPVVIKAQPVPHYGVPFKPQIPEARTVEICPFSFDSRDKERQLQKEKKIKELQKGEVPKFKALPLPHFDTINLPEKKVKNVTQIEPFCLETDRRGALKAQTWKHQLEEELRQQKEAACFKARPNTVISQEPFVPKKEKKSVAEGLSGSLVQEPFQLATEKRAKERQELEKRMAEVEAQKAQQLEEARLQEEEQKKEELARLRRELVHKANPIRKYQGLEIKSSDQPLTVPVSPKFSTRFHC
UniProt Q86WJ1: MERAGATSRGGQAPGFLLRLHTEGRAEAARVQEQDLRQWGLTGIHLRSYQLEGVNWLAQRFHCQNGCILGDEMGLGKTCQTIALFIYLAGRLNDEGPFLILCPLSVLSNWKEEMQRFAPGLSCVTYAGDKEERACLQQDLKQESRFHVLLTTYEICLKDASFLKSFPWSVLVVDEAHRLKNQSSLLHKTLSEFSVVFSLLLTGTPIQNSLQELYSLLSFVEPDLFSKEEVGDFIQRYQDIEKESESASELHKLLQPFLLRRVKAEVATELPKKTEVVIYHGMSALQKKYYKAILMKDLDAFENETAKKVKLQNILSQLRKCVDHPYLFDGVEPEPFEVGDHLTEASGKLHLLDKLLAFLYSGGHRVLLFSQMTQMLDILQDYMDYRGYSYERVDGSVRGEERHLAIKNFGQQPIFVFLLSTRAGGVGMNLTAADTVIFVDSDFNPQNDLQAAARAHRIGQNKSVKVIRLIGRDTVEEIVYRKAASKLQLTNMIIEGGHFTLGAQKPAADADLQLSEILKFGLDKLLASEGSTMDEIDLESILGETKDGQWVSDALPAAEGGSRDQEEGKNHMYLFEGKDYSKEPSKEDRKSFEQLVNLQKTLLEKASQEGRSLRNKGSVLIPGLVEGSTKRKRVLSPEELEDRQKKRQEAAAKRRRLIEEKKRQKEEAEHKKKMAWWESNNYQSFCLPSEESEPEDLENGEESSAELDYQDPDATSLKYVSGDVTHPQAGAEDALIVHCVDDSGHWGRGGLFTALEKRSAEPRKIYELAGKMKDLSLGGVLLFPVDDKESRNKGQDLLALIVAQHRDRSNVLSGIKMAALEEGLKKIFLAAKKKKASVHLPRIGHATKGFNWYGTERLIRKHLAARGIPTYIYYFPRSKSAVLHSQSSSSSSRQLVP
UniProt P13010: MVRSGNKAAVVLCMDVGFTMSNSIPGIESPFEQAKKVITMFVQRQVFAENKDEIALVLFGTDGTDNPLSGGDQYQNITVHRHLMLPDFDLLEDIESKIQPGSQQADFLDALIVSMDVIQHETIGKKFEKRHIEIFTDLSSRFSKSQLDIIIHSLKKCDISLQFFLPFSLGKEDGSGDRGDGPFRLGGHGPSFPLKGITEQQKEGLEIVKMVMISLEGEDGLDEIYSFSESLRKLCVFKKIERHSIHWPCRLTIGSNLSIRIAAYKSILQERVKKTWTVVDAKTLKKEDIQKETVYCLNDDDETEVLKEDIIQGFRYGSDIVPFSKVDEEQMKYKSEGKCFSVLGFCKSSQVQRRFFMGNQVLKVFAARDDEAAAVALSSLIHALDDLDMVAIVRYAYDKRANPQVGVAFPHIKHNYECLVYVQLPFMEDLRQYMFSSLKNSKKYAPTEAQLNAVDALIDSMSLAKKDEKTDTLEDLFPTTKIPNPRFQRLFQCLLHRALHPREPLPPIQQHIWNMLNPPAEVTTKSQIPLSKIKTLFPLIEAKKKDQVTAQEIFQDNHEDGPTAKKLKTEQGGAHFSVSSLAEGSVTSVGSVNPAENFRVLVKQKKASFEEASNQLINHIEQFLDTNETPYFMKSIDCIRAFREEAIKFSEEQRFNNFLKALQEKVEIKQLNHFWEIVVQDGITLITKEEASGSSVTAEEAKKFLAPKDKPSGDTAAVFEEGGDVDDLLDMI
UniProt Q13535: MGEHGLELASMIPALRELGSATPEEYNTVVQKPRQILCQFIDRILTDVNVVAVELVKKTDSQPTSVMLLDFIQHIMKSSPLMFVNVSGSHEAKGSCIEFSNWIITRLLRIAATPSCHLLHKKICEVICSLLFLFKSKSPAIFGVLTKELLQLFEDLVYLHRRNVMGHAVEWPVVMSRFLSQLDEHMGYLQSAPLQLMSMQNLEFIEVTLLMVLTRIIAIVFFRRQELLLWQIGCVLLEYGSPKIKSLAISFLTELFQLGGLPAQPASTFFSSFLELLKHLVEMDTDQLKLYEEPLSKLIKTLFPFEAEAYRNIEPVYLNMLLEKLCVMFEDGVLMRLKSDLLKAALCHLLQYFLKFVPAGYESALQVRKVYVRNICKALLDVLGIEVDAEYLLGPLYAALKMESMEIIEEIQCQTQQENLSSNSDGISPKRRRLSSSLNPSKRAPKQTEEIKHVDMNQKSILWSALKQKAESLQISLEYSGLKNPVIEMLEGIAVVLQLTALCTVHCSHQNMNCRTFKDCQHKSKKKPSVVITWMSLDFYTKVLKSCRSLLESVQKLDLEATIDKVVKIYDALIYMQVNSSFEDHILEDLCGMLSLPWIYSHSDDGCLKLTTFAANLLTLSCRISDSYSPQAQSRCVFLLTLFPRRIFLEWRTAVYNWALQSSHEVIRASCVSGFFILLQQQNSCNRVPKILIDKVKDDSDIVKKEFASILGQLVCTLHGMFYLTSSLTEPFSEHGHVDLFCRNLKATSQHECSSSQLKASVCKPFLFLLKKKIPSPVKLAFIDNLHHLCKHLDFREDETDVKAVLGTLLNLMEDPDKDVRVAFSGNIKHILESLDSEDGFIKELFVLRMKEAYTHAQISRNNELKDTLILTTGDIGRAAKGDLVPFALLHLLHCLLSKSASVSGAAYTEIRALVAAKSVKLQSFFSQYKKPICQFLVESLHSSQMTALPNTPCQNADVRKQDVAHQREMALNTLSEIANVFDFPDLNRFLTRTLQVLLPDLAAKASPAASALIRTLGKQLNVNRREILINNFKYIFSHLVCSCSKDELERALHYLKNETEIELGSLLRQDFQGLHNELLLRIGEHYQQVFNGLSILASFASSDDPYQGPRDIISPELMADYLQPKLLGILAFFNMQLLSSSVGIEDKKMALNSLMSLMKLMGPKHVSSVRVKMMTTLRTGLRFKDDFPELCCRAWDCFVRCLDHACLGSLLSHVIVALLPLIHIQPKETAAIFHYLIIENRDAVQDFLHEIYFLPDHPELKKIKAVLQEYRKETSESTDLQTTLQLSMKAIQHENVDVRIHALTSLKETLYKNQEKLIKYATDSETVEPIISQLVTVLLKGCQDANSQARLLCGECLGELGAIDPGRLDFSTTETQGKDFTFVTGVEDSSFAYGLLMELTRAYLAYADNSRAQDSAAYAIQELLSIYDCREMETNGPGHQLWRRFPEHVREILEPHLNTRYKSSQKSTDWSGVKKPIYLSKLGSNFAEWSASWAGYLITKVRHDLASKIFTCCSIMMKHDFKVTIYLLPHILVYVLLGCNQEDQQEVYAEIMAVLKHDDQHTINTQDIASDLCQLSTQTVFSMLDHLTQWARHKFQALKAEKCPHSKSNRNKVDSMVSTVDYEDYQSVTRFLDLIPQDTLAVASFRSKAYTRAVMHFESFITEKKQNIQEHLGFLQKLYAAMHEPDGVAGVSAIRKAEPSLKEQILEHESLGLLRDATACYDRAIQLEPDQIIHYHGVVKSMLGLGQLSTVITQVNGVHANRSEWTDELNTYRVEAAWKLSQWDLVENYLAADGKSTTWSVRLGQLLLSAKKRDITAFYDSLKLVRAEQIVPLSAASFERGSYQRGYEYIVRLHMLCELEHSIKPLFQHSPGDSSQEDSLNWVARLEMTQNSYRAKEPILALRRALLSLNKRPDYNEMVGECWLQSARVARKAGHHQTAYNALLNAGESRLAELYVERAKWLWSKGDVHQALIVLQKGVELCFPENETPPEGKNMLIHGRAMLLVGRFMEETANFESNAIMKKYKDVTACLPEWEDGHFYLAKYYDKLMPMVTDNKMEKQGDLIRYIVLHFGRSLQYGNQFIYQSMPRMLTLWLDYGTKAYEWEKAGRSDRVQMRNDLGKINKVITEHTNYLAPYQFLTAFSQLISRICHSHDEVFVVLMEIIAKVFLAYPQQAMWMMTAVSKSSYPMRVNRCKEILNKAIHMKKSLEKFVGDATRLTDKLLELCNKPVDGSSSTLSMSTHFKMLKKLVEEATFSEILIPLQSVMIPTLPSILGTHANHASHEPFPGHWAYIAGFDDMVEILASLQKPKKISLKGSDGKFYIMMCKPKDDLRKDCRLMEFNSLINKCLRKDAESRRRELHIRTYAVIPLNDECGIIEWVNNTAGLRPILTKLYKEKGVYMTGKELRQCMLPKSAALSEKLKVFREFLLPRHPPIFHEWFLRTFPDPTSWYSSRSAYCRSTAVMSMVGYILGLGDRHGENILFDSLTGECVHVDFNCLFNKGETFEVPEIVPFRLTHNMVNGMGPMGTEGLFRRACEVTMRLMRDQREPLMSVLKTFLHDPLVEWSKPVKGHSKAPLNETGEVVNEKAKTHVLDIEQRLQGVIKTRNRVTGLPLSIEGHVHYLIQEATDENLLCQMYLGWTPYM
UniProt O14965: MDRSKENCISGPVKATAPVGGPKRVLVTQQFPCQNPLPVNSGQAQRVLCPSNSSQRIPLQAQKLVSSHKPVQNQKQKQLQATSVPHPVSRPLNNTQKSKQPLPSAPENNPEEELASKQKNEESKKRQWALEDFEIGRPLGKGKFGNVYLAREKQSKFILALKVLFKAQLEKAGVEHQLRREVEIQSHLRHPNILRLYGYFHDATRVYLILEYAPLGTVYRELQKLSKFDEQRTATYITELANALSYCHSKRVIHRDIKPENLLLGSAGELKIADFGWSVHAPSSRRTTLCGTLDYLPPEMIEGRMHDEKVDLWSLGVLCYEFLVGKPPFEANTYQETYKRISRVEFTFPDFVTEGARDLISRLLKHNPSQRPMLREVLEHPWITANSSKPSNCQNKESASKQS

Columns and labels:
[1] = molecular target: full-length PARP1 tagged on the N-terminus with APEX2 (expressed in U2OS cells) (human) (UniProt P09874); assay: proximity labelling; APEX2-PARP1 in SILAC-labelled U2OS cells; 500 uM biotin phenol 2 h, 1 mM H2O2 2 min, against no H2O2; nuclear extract, NeutrAvidin pull-down, LC-MS/MS; FDR < 1%
[2] = molecular target: GFP-tagged TPX2, full length (expressed in U2OS cells) (UniProt Q9ULW0); assay: affinity purification with mass spectrometry; GFP-TPX2 transiently expressed in U2OS; GFP-Trap beads, modified RIPA washes, on-bead digestion, label-free quantification against a GFP control
[3] = molecular target: full-length PARP1 tagged on the N-terminus with APEX2 (expressed in HEK293T cells) (human) (UniProt P09874); assay: proximity labelling; APEX2-PARP1 in HEK293T cells after olaparib or DMSO treatment; SILAC, NeutrAvidin pull-down, LC-MS/MS
[4] = molecular target: GFP-tagged TPX2, full length (expressed in U2OS cells) (UniProt Q9ULW0); assay: affinity purification with mass spectrometry; SILAC-based co-IP-MS of the N-terminal deletion mutant or full-length TPX2 in U2OS cells (Supplementary Figure S4d)
[5] = molecular target: GFP-tagged TPX2, full length (expressed in U2OS cells) (UniProt Q9ULW0); assay: affinity purification with mass spectrometry; GFP-TPX2; GFP-Trap beads, SILAC-based co-IP-MS (Supplementary Figure S4b)

Substance | binding [1] | binding [2] | binding [3] | further results
CHD1L (from UniProt Q86WJ1 1-897) | binds | binds | binds | –
FUS (from UniProt P35637 1-526) | binds | – | – | –
LIG1 (from UniProt P18858 1-919) | binds | – | – | –
NBN (from UniProt O60934 1-754) | binds | – | – | –
PARP2 (from UniProt Q9UGN5 1-583) (enzyme) | – | binds | – | –
PCNA (from UniProt P12004 1-261) | – | – | binds | –
RAD50 (from UniProt Q92878 1-1312) | binds | – | – | –
RFC2 (from UniProt P35250 1-354) | – | binds | – | –
RFC5 (from UniProt P40937 1-340) | – | binds | – | –
RPA1 (from UniProt P27694 1-616) | binds | binds | – | –
SRSF1 (from UniProt Q07955 1-248) | – | – | binds | –
UIMC1 (from UniProt Q96RL1 1-719) | binds | – | – | –
XRCC5 (from UniProt P13010 1-732) | binds | binds | binds | binding [4]: binds
endogenous Targeting protein for Xklp2 (TPX2) (from UniProt Q9ULW0 1-747) | binds | – | binds | –
single-stranded DNA-binding protein RPA2 (from UniProt P15927 1-270) | binds | – | – | –

The next lines start with results.

binding [1] | binding [2] | binding [3] | Substance | further results
binds | binds | – | 53BP1 (from UniProt Q12888 1-1972) | –
– | – | binds | APEX1 (from UniProt P27695 1-318) (other; other documents disagree on this pair) | –
– | – | binds | ATR (from UniProt Q13535 1-2644) | –
binds | – | – | AURKA (from UniProt O14965 1-403) | –
binds | – | – | BLM (from UniProt P54132 1-1417) | –
– | – | binds | MCM2 (from UniProt P49736 1-904) | –
binds | binds | – | MDC1 (from UniProt Q14676 1-2089) | –
binds | – | – | PRKDC (from UniProt P78527 1-4128) | –
– | – | binds | RNASEH2A (from UniProt O75792 1-299) | –
– | – | binds | VCP (from UniProt P55072 1-806) | –
– | binds | – | XRCC1 (from UniProt P18887 1-633) | –
– | binds | – | XRCC6 (from UniProt P12956 1-609) | binding [4]: binds
– | binds | – | endogenous PARP1 (from UniProt P09874 1-1014) (enzyme) | binding [5]: binds; binding [4]: binds

No constants are given. Whether binding was seen depends on the method and setting. In cells and extracts the contact can be indirect. Here binding means that the protein was enriched with, or labelled near, the bait; the list need not be complete.
